Source: patent publication US11680885B2, “Method, process, composition and kit for measuring concentration of molecules dissolved in the continuous phase of a colloid” (UNIVERSIDAD TÉCNICA FEDERICO SANTA MARÍA, priority 2017, dated 2023)

Test: Measurement of concentration of molecules dissolved in the continuous phase of the standard AuNP@MUA colloid (centrifugation, RP-HPLC with UV-visible detection)
Type: physicochemical
Settings: n=3

Question: What does the source list for `O=C(O)c1cn(C2CC2)c2cc(N3CCNCC3)c(F)cc2c1=O` [ciprofloxacin]?
Answer: concentration in the control samples, equivalent to the continuous phase of the colloid (control samples: particle-free solution extracted from the colloid, 2.00 μM molecule added): 2.00 µM; concentration of molecules dissolved in the continuous phase of the standard AuNP@MUA colloid (test samples, after incorporating 2.00 μM of the molecule into the colloid, centrifuged 24,000×g 15 min, average): 0.88 µM
